Some of the results follow.
test system: T1, CTL2-GFP (C. trachomatis L2/434/Bu, GFP-expressing); parameters: species or system HeLa; Intracellular C. trachomatis growth in HeLa cells, bulk GFP fluorescence relative to DMSO; details: bulk GFP, single well; 28.5 h, 10 µM; inhibitor
T1 construct: L2/434/Bu, GFP-expressing

Compound	% of control remaining
CCn1cc(S(=O)(=O)NC2CCc3[nH]c4ccc(C)cc4c3C2)cn1 (stereo not drawn) [CBK304790]	126.466%
CC(C)NS(=O)(=O)c1ccc(NS(=O)(=O)c2cc(C(=O)O)ccc2Cl)cc1 [CBK296951]	144.171%
CCC1CCCCN1C(=O)c1sc2ncccc2c1N (stereo not drawn) [CBK081410]	97.4204%
CN(C(=O)CN1CCCC1Cn1cccn1)C1(C#N)CCCCC1 (stereo not drawn) [CBK304571]	94.6258%
Cc1nonc1CC(=O)N[C@H]1C2CCCCC2[C@@H]1c1ccccc1 (stereo partly drawn) [CBK285126]	117.933%
CC1CN(C)C(c2ccccc2)C(C)C12NC(=O)NC2=O (stereo not drawn) [CBK288428]	127.07%
CN1CCC2(CC1)NCCc1c2ccn1S(=O)(=O)c1ccc(I)cc1 [CBK061945C]	117.672%
O=C(CCSS(=O)(=O)O)N1CCc2ccccc21 [CBK260892N]	107.251%
Cc1cccc(OCC(=O)Nc2ccc(S(=O)(=O)N3CCOCC3)cc2)c1 [CBK264110]	98.2351%
COCC(C)NC(=O)Cn1cccc2cc(C(F)F)nc1-2 (stereo not drawn) [CBK285011]	93.8267%
COCc1nnc(SCC(=O)N2CCc3ccccc32)n1-c1ccccc1 [CBK269739]	130.669%
COc1ccc(-c2cc(=O)oc3cc(OC(C)C(=O)O)ccc23)cc1 (stereo not drawn) [CBK286696]	92.4838%
CC(=O)NC[C@H]1CN(c2ccc(C3=CC[S+]([O-])CC3)c(F)c2)C(=O)O1 (stereo partly drawn) [CBK017555]	0.258%
CC(NC(C)(C)C)C(O)COc1ccc(Cl)c2c1C1CCC2CC1 (stereo not drawn) [CBK017752C]	59.0739%
CCOc1ccc(NC(=O)C2CC=CCC2C(=O)O)cc1 (stereo not drawn) [CBK274682]	83.3779%
Cc1ccc(CNC(=O)Cn2nnc(-c3ccc(CN4CCCC(C(F)(F)F)C4)cc3)n2)cc1 (stereo not drawn) [CBK144562C]	106.456%
COc1ccc(NC(=O)CSc2ncnc3ccccc23)cc1 [CBK270215]	125.621%
CC(C)(CO)NC(=O)c1cc(S(=O)(=O)N2CCOCC2)ccc1Cl [CBK269748]	118.665%
O=C1CC(c2ccccc2)CC(NCc2ccc3c(c2)OCO3)=C1C(=S)Nc1ccccc1 (stereo not drawn) [CBK264890]	105.236%
O=C(Cc1cccs1)NCCc1c[nH]cn1 [CBK269805]	140.224%
COCCn1cnnc1CCNC(=O)Cc1cccc(O)c1 [CBK307322]	104.776%
O=C(Cn1c(-c2cccs2)cc2cccnc21)N1CCC(O)CC1 [CBK282458]	94.5143%
Cc1nc2ccccc2c(=O)n1CC(N)=O [CBK004145]	113.792%
CC1=NN(c2ccc([N+](=O)[O-])cc2)C(=O)/C1=C\NCCN1CCN(C(=O)c2ccc(Br)cc2)CC1 [CBK261788]	104.064%
COc1ccc([C@@]23CC[C@@H](NC(=O)Nc4cc(F)c(F)c(F)c4)C[C@@H]2N(C)CC3)c(F)c1OC [CBK073909T]	112.509%
O=C1CN=C(N2C(=O)C3C4C=CC(C4)C3C2=O)C(=O)N1 (stereo not drawn) [CBK028818]	104.097%

Compound	% of control remaining
CCC(c1ccc2ccccc2c1)c1c(O)c2ccccc2oc1=O (stereo not drawn) [CBK016681]	114.466%
CC(C(=O)N(C)C)n1cccc1 (stereo not drawn) [CBK012421]	132.64%
O=C(O)c1cccc2c3c([nH]c12)CCCCC3 [CBK003451]	122.259%
O=C(O)CC(NS(=O)(=O)c1cccc2nsnc12)C(=O)O (stereo not drawn) [CBK073316]	105.337%
Cc1nc(CSc2nc3sc4c(c3c(=O)n2-c2ccccc2)CCCCC4)cs1 [CBK265706]	123.349%
Cc1ccc(NS(=O)(=O)c2ccc(NC(=O)c3ccc(CN4CCOCC4)cc3)cc2)c(C)c1 [CBK264815]	99.1887%
COc1cc(C(=O)NCC(=O)O)cc(OC)c1OC [CBK261039]	124.11%
O=C1N[C@@]2(CC3CCC2CC3C(=O)N2CCCC2)Nc2ccccc21 (stereo partly drawn) [CBK284449]	110.674%
COC(=O)c1nn(-c2ccccc2)c2cc([N+](=O)[O-])ccc12 [CBK115321]	126.7%
COc1ccc2nc(NC(=O)c3ccc4ncsc4c3)sc2c1 [CBK287364]	136.921%
Cc1ccccc1OCc1nn2c(C)nnc2s1 [CBK269220]	123.281%
Cc1c(NC(=O)CCCC(=O)O)c(=O)n(-c2ccccc2)n1C [CBK286532]	163.533%
CS(=O)(=O)c1ccc(-c2cnc(N)c(NC3CCC(O)CC3)n2)cc1 (stereo not drawn) [CBK063865]	78.4768%
COc1cc(NC(=O)c2cccnc2)c(Cl)cc1NC(=O)c1ccc(Cl)cc1 [CBK033522]	100%
CC1=NN(c2nc(-c3ccc(Br)cc3)cs2)C(=O)C1/N=N/c1ccc(C(=O)O)cc1 (stereo not drawn) [CBK262435]	100%
O=C(Nc1ccc2c(c1)oc1ccccc12)C1CCCO1 (stereo not drawn) [CBK270168]	123.861%
O=C(c1ccco1)N1CCC2(CCCNC2)C1 (stereo not drawn) [CBK153233C]	116.87%
O=C(O)c1ccc(OCCNS(=O)(=O)c2ccc3ccccc3c2)cc1 [CBK299807]	105.553%
O=c1[nH]cc(-c2ccccc2)cc1CNc1cccc2ncccc12 [CBK284771]	80.1289%
COc1ccc(NC(=O)CSc2nnc(N)s2)cc1 [CBK058635]	103.555%
O=C(CCN1CCCCC1)Nc1cnc(-c2ccc(F)cc2)c(-c2ccsc2)n1 [CBK036846]	81.1751%
O=C(c1ccc(NS(=O)(=O)c2ccccc2)cc1)N1CCN(Cc2ccc3c(c2)OCO3)CC1 [CBK267957]	93.5162%
COc1cccc(CS(=O)(=O)c2c(Br)sc3ccnc(N4CCNCC4)c23)c1 [CBK038956C]	127.595%
O=C(Nc1cc(N2CCCS2(=O)=O)ccc1F)c1n[nH]c2ccccc12 [CBK304216]	90.6825%
COc1ccc(C(=O)C2=C(O)C(=O)N(CCN3CCNCC3)C2c2ccccc2F)cc1 (stereo not drawn) [CBK264666]	124.971%

Four entries from above, with bars between the fields:
Compound | % of control remaining
COCc1nnc(SCC(=O)N2CCc3ccccc32)n1-c1ccccc1 [CBK269739] | 130.669%
COc1ccc(-c2cc(=O)oc3cc(OC(C)C(=O)O)ccc23)cc1 (stereo not drawn) [CBK286696] | 92.4838%
CC(=O)NC[C@H]1CN(c2ccc(C3=CC[S+]([O-])CC3)c(F)c2)C(=O)O1 (stereo partly drawn) [CBK017555] | 0.258%
CC(NC(C)(C)C)C(O)COc1ccc(Cl)c2c1C1CCC2CC1 (stereo not drawn) [CBK017752C] | 59.0739%

Reference: publication PMC12040169 (PLOS Biology, 2025)
